PubChem BioAssay AID330 (DTP/NCI, 2004)
The list does not hold the whole screen: it gathers tests that were run many times, whatever their T/C, doses with no T/C, and many T/C values between a quarter and a half above the control. Other doses and runs of a compound stand elsewhere. T/C: endpoint of the treated group in % of that of the vehicle group. Some doses have a count of surviving animals in place of a T/C: the source files T/C as zero there, which appears to mark a toxic dose or a test without result, not a measured value. Some survivor counts are full or nearly so, which does not show that the dose was tolerated: survival well below the control is almost never listed, so the zero probably covers shortened survival too. Counts of survivors are from the toxicity check (mostly the fifth day) where no day follows; animals may have died later. Schedule codes are those of the source, taken here to give the interval after Q, in days (D) or hours (H), and the number of doses after X. Some doses were run more than once; their values stand side by side, smallest first. Additions like (4×) stand for listed records that agree. For survival time, the PubChem record calls one and a half times the control and up active, and a quarter to a half above the control has no call in these data; cut-offs in other NCI protocols can differ. Some T/C values are followed by the survivors on the day toxicity was checked, most often the fifth; without a count, all were alive then. Some schedule codes hold Z or #, which are not explained here.

Test system: P388 leukemia ip, CD2F1 mice, survival T/C
Experiment: NCI In Vivo Anticancer Drug Screen. Data for tumor model P388 Leukemia (intraperitoneal) in CD2F1 (CDF1) mice
Settings: T/C endpoint: median survival time, higher T/C = longer survival
[1] = dose: 64.0 mg/kg/injection, schedule: Q04DX003 (ip), vehicle: saline

In the case of `COc1cccc2c1C(=O)c1c(O)c3c(c(O)c1C2=O)C[C@@](O)(C(=O)CO)C[C@@H]3OC1CC(N)C(O)C(C)O1` (some centres not stated), the T/C (dose: 16.0 mg/kg/injection, schedule: Q01DX001 (ip), vehicle: saline, evaluated on day 60) was 151 % of control, the T/C (dose: 16.0 mg/kg/injection, schedule: Q04DX003 (ip), vehicle: saline, evaluated on day 5) was 74 and 83 % of control and the T/C (dose: 16.0 mg/kg/injection, schedule: Q04DX003 (ip), vehicle: saline, evaluated on day 30) was 115 (2×), 118 [5 of 6 alive], 127, 130, 131, 138, 140, 153, 163, 165, 172, 179, 180 (2×), 200, 201, 209 % of control. For the same compound, the T/C (dose: 16.0 mg/kg/injection, schedule: Q04DX003 (ip), vehicle: water, evaluated on day 30, list 1 of 2) was 93, 95 [4 of 6 alive], 100, 101 [5 of 6 alive], 108, 110 [5 of 6 alive], 113, 117, 119, 121 (2×), 123, 126, 127, 130, 131, 138, 139, 141, 144, 145, 151, 153, 157, 169, 173, 175, 180, 185, 194, 208, 227, 233 % of control, the T/C (dose: 16.0 mg/kg/injection, schedule: Q04DX003 (ip), vehicle: water, evaluated on day 30, list 2 of 2) was 93, 95, 96, 99, 100, 106, 109, 111, 114, 117, 121 (2×), 122, 124, 126, 129, 130, 133, 139, 140, 144, 145, 149, 151, 155, 161, 169, 174, 177, 185, 193, 200, 215, 228 % of control and the T/C (dose: 16.0 mg/kg/injection, schedule: Q04DX003 (ip), vehicle: water, evaluated on day 35) was 100, 122, 125, 135, 136, 139, 140, 152 (2×), 155 (2×), 163, 219, 267 % of control. The T/C (dose: 16.0 mg/kg/injection, schedule: Q04DX003 (ip), vehicle: water, evaluated on day 40) was 94, 108, 152, 155, 188 % of control, the T/C (dose: 16.0 mg/kg/injection, schedule: Q04DX003 (ip), vehicle: water, evaluated on day 45) was 92 [2 of 3 alive], 97, 99, 107, 108 (2×), 109, 110 (3×), 112, 113, 114 (2×), 116 (2×), 117 [5 of 6 alive], 119 (3×), 120, 120 [5 of 6 alive], 121 (2×), 124, 127 (2×), 128 (2×), 132, 134, 135, 138 (2×), 142, 144, 145, 152, 153, 154, 178, 198, 202, 248, 267 % of control and the T/C (dose: 16.0 mg/kg/injection, schedule: Q04DX003 (ip), vehicle: water, evaluated on day 50) was 111, 117, 121, 152, 166 % of control. For the same compound, the T/C (dose: 16.0 mg/kg/injection, schedule: Q04DX003 (ip), vehicle: water, evaluated on day 60) was 112 and 212 % of control, the survivor count (dose: 16.0 mg/kg/injection, schedule: Q04DX003 (ip), vehicle: water) was 3 of 6, 5 of 6, 6 of 6 (2×), 6 of 6 on day 9 and the T/C (dose: 16.0 mg/kg/injection, schedule: Q## X001 (ip), vehicle: saline) was 93, 96, 138, 183 (2×), 203, 212 % of control. The survivor count (dose: 18.0 mg/kg/injection, schedule: Q04DX003 (ip), vehicle: saline) was 8 of 8, the T/C (dose: 20.0 mg/kg/injection, schedule: Q01DX001 (ip), vehicle: saline, evaluated on day 6) was 75 [4 of 5 alive] and 86 % of control and the T/C (dose: 20.0 mg/kg/injection, schedule: Q01DX001 (ip), vehicle: saline, evaluated on day 7) was 95 % of control [2 of 6 alive]. The T/C (dose: 20.0 mg/kg/injection, schedule: Q01DX001 (ip), vehicle: saline, evaluated on day 11) was 185 % of control, the T/C (dose: 20.0 mg/kg/injection, schedule: Q01DX001 (ip), vehicle: saline, evaluated on day 44) was 323 % of control and the T/C (dose: 20.0 mg/kg/injection, schedule: Q01DX001 (ip), vehicle: saline, evaluated on day 60) was 188, 219 [9 of 10 alive], 504 % of control. For the same compound, the survivor count (dose: 20.0 mg/kg/injection, schedule: Q01DX001 (ip), vehicle: saline) was 6 of 10 and 9 of 10, the T/C (dose: 20.0 mg/kg/injection, schedule: Q01DX001 (ip), vehicle: water, evaluated on day 5) was 202 % of control and the T/C (dose: 20.0 mg/kg/injection, schedule: Q01DX001 (ip), vehicle: water, evaluated on day 45) was 142 and 266 % of control [5 of 6 alive]. The survivor count (dose: 20.0 mg/kg/injection, schedule: Q01DX001 (ip), vehicle: water) was 4 of 6, 5 of 6, 6 of 6, the T/C (dose: 20.0 mg/kg/injection, schedule: Q04DX003 (ip), vehicle: water) was 132 % of control and the T/C (dose: 22.5 mg/kg/injection, schedule: Q01DX001 (ip), vehicle: saline) was 134 % of control [8 of 9 alive]. For the same compound, the T/C (dose: 24.0 mg/kg/injection, schedule: Q04DX003 (ip), vehicle: saline) was 109 [survivors not given], 116, 126 [survivors not given], 127 % of control, the survivor count (dose: 25.0 mg/kg/injection, schedule: Q01DX009 (ip), vehicle: water) was 0 of 6 and the survivor count (dose: 27.0 mg/kg/injection, schedule: Q04DX003 (ip), vehicle: saline) was 6 of 8. For the same compound, the survivor count (dose: 30.0 mg/kg/injection, schedule: Q01DX001 (ip), vehicle: saline) was 6 of 6, the survivor count (dose: 32.0 mg/kg/injection, schedule: Q01DX001 (ip), vehicle: DMSO) was 8 of 10 and the survivor count (dose: 32.0 mg/kg/injection, schedule: Q01DX001 (ip), vehicle: other) was 1 of 10. For the same compound, the T/C (dose: 32.0 mg/kg/injection, schedule: Q01DX001 (ip), vehicle: saline, evaluated on day 3) was 40 % of control [8 of 9 alive], the T/C (dose: 32.0 mg/kg/injection, schedule: Q01DX001 (ip), vehicle: saline, evaluated on day 5) was 85 % of control and the T/C (dose: 32.0 mg/kg/injection, schedule: Q01DX001 (ip), vehicle: saline, evaluated on day 7) was 71 [2 of 2 alive] and 80 % of control [2 of 4 alive]. For the same compound, the T/C (dose: 32.0 mg/kg/injection, schedule: Q01DX001 (ip), vehicle: saline, evaluated on day 30) was 238 % of control [3 of 6 alive], the T/C (dose: 32.0 mg/kg/injection, schedule: Q01DX001 (ip), vehicle: saline, evaluated on day 45) was 207 % of control and the T/C (dose: 32.0 mg/kg/injection, schedule: Q01DX001 (ip), vehicle: saline, evaluated on day 60) was 181 % of control. The survivor count (dose: 32.0 mg/kg/injection, schedule: Q01DX001 (ip), vehicle: saline) was 5 of 10, 8 of 10, 6 of 6, the survivor count (dose: 32.0 mg/kg/injection, schedule: Q01DX001 (iv), vehicle: saline) was 5 of 6 and the T/C (dose: 32.0 mg/kg/injection, schedule: Q04DX003 (ip), vehicle: saline, evaluated on day 5) was 52 and 56 % of control. The T/C (dose: 32.0 mg/kg/injection, schedule: Q04DX003 (ip), vehicle: saline, evaluated on day 30) was 91, 100 [5 of 6 alive], 106, 108 [5 of 6 alive on day 9], 137, 149 % of control, the survivor count (dose: 32.0 mg/kg/injection, schedule: Q04DX003 (ip), vehicle: saline) was 4 of 6 and the survivor count (dose: 40.5 mg/kg/injection, schedule: Q04DX003 (ip), vehicle: saline) was 4 of 8. The survivor count (dose: 55.6 mg/kg/injection, schedule: Q01DX001 (oral), vehicle: saline) was 6 of 10, the survivor count (dose: 64.0 mg/kg/injection, schedule: Q01DX001 (ip), vehicle: DMSO) was 0 of 10 and the survivor count (dose: 64.0 mg/kg/injection, schedule: Q01DX001 (ip), vehicle: other) was 0 of 10. The survivor count (dose: 64.0 mg/kg/injection, schedule: Q01DX001 (ip), vehicle: saline) was 1 of 10 and 2 of 10, the T/C [1] was 87 [2 of 6 alive], 91 [2 of 6 alive], 97 % of control [5 of 6 alive on day 9] and the survivor count [1] was 3 of 6 and 6 of 6. For the same compound, the survivor count (dose: 128.0 mg/kg/injection, schedule: Q01DX001 (ip), vehicle: DMSO) was 0 of 10, the survivor count (dose: 128.0 mg/kg/injection, schedule: Q01DX001 (ip), vehicle: other) was 0 of 10 and the survivor count (dose: 128.0 mg/kg/injection, schedule: Q01DX001 (ip), vehicle: saline) was 0 of 10 (2×). The survivor count (dose: 128.0 mg/kg/injection, schedule: Q04DX003 (ip), vehicle: saline) was 6 of 6.
